# Results: US9388215B2, “Compositions and methods of using islet neogenesis peptides and analogs thereof” (SHENZHEN HIGHTIDE BIOPHARMACEUTICAL, LTD., priority 2013, dated 2016)
# Some entries share one result that the patent states for a list of compounds.
# Test system: pancreatic islets
# Assay: Glucose-stimulated insulin secretion (GSIS) of isolated islets
# Format: cell-based, rat
# Details: 12.0 mM glucose; 10 μg/mL peptide vs 100 nM GLP-1
# Protocol: The pancreases were procured from male adult Sprague-Dawley (SD) rats. After 7 days acclimation, the animals were sacrificed by cervical dislocation and the entire pancreas was removed and digested with collagenase to isolate islets. After digestion, islets were maintained at 37° C. in RPMI 1640 (Carlsbad Calif., USA) pH 7.4, containing 10% (v/v) fetal calf serum, 1% penicillin/streptomycin, and 10 mM glucose in a humid atmosphere (5% CO2/95% O2), without the addition of any compound (control), or with the addition of 100 nM glucagon like peptide-1 (GLP-1); or 10 μg/mL Peptide 1, Peptide 12, or Peptide 16, as summarized in Table 4 below. Cultured islets were rinsed in Krebs-Ringer bicarbonate buffer (KRB), pH 7.4, previously gassed with a mixture of CO2/O2 (5/95%), and pre-incubated in 1.0 ml of KRB containing 0.5% (w/v) BSA and 1.5 mM glucose at 37° C. for 45 min. After this period, groups of 5 islets were incubated in 0.6 ml KRB with the addition of 1.5 or 12.0 mM glucose, with or without the addition of peptides for 60 min. At the end of the incubation period, aliquots of the medium were collected for insulin quantitation.
row,Substance,stimulation of insulin secretion relative to GLP-1
1,"Ac-IGLHDPSHGTLPNGS-OH [Peptide 16, Ac-IGLHDPSHGTLPNGS-OH]",2-3 fold
2,"Ac-IGLHDPSHGTLPAGS-OH [Peptide 12, Ac-IGLHDPSHGTLPAGS-OH]",2-3 fold
